# Source: US11253604B2 (CAREGEN CO., LTD., priority 2017, dated 2022)
# Where a sequence shows no end group, the ends are not given.
# Assay: general procedure: Fmoc solid-phase peptide synthesis; CTL resin; HoBt/Bop/DIEA
# Conditions: whole synthesis
sequence,measurement,setting,value
RFLKRLDRNLW,crude mass,,1.40 g
same,crude yield,scale of the general procedure 700 mg resin,92.4%
